The text below walks through data of publication doi:10.1101/2023.03.13.532151.

Sequences of proteins named here, by UniProt entry; tags and fusion partners are left off. Residues count along the entry.
UniProt P01589, residues 22-272: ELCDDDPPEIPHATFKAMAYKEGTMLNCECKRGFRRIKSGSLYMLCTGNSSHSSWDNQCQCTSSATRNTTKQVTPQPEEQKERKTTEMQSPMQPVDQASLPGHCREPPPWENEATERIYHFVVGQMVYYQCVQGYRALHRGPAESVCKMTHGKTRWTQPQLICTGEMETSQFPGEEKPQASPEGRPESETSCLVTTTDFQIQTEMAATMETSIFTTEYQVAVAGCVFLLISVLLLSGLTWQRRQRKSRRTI
UniProt P29350: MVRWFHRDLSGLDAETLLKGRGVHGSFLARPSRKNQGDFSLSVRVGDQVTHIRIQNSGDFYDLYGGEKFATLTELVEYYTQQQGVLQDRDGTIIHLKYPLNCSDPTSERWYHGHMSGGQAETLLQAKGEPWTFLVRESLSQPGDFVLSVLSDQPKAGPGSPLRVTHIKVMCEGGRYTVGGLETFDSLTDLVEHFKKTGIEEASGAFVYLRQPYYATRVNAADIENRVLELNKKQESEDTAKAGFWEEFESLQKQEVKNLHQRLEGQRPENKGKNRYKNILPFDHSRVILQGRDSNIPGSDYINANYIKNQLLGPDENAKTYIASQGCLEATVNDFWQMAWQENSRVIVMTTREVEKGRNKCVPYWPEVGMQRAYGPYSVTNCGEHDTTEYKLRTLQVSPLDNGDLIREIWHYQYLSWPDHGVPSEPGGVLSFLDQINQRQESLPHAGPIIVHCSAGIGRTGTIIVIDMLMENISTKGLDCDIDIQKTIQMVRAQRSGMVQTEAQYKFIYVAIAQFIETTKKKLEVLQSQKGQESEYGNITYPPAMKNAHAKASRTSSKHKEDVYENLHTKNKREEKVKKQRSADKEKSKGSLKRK

This assay has as its target CD25^WT-BirA (UniProt P01589). Put plainly: proximity labelling.

Results are given in words; binding and its absence hold for the method and conditions named. Binding seen in cells or lysates may run through a third protein. A yes stands for co-enrichment or nearness to the bait. Other partners may have been found.

Consider “SHP1 (human) (from UniProt P29350 1-595) (enzyme)”, for which the binding result is listed as “binds”.

B1: SHIP1 (human) (enzyme, UniProt Q92835 1-1189)
chain: MVPCWNHGNITRSKAEELLSRTGKDGSFLVRASESISRAYALCVLYRNCVYTYRILPNEDDKFTVQASEGVSMRFFTKLDQLIEFYKKENMGLVTHLQYPVPLEEEDTGDDPEEDTVESVVSPPELPPRNIPLTASSCEAKEVPFSNENPRATETSRPSLSETLFQRLQSMDTSGLPEEHLKAIQDYLSTQLAQDSEFVKTGSSSLPHLKKLTTLLCKELYGEVIRTLPSLESLQRLFDQQLSPGLRPRPQVPGEANPINMVSKLSQLTSLLSSIEDKVKALLHEGPESPHRPSLIPPVTFEVKAESLGIPQKMQLKVDVESGKLIIKKSKDGSEDKFYSHKKILQLIKSQKFLNKLVILVETEKEKILRKEYVFADSKKREGFCQLLQQMKNKHSEQPEPDMITIFIGTWNMGNAPPPKKITSWFLSKGQGKTRDDSADYIPHDIYVIGTQEDPLSEKEWLEILKHSLQEITSVTFKTVAIHTLWNIRIVVLAKPEHENRISHICTDNVKTGIANTLGNKGAVGVSFMFNGTSLGFVNSHLTSGSEKKLRRNQNYMNILRFLALGDKKLSPFNITHRFTHLFWFGDLNYRVDLPTWEAETIIQKIKQQQYADLLSHDQLLTERREQKVFLHFEEEEITFAPTYRFERLTRDKYAYTKQKATGMKYNLPSWCDRVLWKSYPLVHVVCQSYGSTSDIMTSDHSPVFATFEAGVTSQFVSKNGPGTVDSQGQIEFLRCYATLKTKSQTKFYLEFHSSCLESFVKSQEGENEEGSEGELVVKFGETLPKLKPIISDPEYLLDQHILISIKSSDSDESYGEGCIALRLEATETQLPIYTPLTHHGELTGHFQGEIKLQTSQGKTREKLYDFVKTERDESSGPKTLKSLTSHDPMKQWEVTSRAPPCSGSSITEIINPNYMGVGPFGPPMPLHVKQTLSPDQQPTAWSYDQPPKDSPLGPCRGESPPTPPGQPPISPKKFLPSTANRGLPPRTQESRPSDLGKNAGDTLPQEDLPLTKPEMFENPLYGSLSSFPKPAPRKDQESPKMPRKEPPPCPEPGILSPSIVLTKAQEADRGEGPGKQVPAPRLRSFTCSSSAEGRAAGGDKSQGKPKTPVSSQAPVPAKRPIKPSRSEINQQTPPTPTPRPPLPVKSPAVLHLQHSKGRDYRDNTELPHHGKHRPEEGPPGPLGRTAMQ
For the molecule B1, the binding result is on record as “binds”.
